Earlier results, collected in patent publication US9974767B2, “Statins in the treatment of muscular dystrophies and myopathies” (University of Washington, priority 2014, dated 2018).

Settings: cited from earlier work

## CC(C)c1c(C(=O)Nc2ccccc2)c(-c2ccccc2)c(-c2ccc(F)cc2)n1CC[C@@H](O)C[C@@H](O)CC(=O)O [atorvastatin]
Evening vs morning
  rate and extent of absorption by time of administration: lower during evening than morning
Food intake
  absorption when consumed with food: reduced absorption
